Test: Spontaneous imbibition in Edwards limestone cores saturated with crude oil
Settings: ambient conditions, alkyl chain n=8-10 (FIG. 9A)

Substance	final oil production from limestone samples
CH3(CH2)8-10(OC2H4)6-6.5OH [CH2 8-10, EO 6]	higher amount of oil than the base surfactant
CH3(CH2)8-10(OC2H4)8.3OH [CH2 8-10, EO 8]	higher amount of oil than the base surfactant
